These are yes or no findings as the source states them, for the method shown. In cells and extracts the contact can be indirect. Binding calls can cover weak binding; strength is not graded here.

Chains of the proteins cited; added tags and fusions are not shown. Lines headed by an entry give the natural chain unless they say otherwise; changes in a name come on top. Residues count along the entry.
UniProt P02649, residues 19-317: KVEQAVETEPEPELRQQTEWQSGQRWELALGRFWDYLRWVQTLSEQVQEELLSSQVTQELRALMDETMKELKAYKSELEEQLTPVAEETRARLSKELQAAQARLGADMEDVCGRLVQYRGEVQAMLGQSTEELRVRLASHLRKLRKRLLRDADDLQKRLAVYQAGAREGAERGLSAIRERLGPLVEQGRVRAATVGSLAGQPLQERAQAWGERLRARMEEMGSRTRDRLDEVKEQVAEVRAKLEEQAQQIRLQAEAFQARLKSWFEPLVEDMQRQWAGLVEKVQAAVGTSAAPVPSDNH
UniProt Q60932: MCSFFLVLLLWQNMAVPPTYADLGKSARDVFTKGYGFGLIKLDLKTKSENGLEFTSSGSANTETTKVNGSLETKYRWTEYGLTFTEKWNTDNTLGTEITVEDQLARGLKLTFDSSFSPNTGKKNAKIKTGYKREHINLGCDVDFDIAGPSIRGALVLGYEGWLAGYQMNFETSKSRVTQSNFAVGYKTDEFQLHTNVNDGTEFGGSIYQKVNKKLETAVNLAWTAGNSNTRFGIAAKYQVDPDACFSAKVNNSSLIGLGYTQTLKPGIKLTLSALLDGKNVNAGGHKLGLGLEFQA

The experiment addresses human apolipoprotein E3 (APOE3) in APOE3 targeted replacement mouse liver (human) (UniProt P02649). The experiment can be described thus: co-IP; APOE precipitated with anti-APOE antibody (sc-13521) and Protein G Sepharose from liver lysates (NP40 lysis buffer, 4 °C) of male APOE TR mice, Western blot of the eluates; mice fed ad libitum (AL) or under 30% dietary restriction (DR); interactions stronger upon DR. (In general: Immunoblotting shows a protein as a band on a membrane.)

Regarding “voltage-dependent anion-selective channel 1 (VDAC1), mouse liver (from UniProt Q60932)”, the binding result is given as “binds”.

The record behind these values is article PMC9905200.
